Test results as given in PubChem BioAssay AID2685 (National Center for Advancing Translational Sciences (NCATS), 2010).
Some of the results follow. These are further read-outs of the screen, such as a control signal, another cell line or another target. No call is given for them. Compounds called inactive in the main read-out are mostly missing here. The note in brackets gives the kind of curve behind each potency; many fits are weak.

Assay: qHTS Assay for Lipid Storage Modulators in Drosophila S3 Cells;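 on cell number change: cells counted by Cell Tracker Red CMTPX staining in the red channel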
Details: BODIPY lipid droplet fluorescence, 18-24 h; for cell number change: measured here: cell count max response, cells fed with added oleic acid
Procedure, shortened: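 Drosophila S3 cells loaded with oleic acid (400 uM, as added) and compounds at several concentrations; lipid droplets imaged by 488-nm laser-scanning cytometry, 500–530 nm intensity and object ratio to cell channel. Percent activity normalized to 20 uM Triacsin C.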

[1] = measured here: lipid fluorescence (Fed channel) AC50, cells fed with added oleic acid
[2] = measured here: cell number channel AC50, cells fed with added oleic acid

Row | SMILES | cell number change [%] | AC50 [1] | AC50 [2]
1 | COc1ccc(S(=O)(=O)N2CCC(C(N)=O)CC2)c2ccccc12 | -0.326 | 3660 nM [falling, full curve] | 
2 | CC1CC(C)CN(c2ccc([N+](=O)[O-])nc2)C1 (stereo unspecified) | 31 |  | 9200 nM [rising, partial curve, poor fit]
3 | CCN(CC)c1ccc(/C=N/Nc2nc(C)cc(=O)[nH]2)c(O)c1 | -6.03 | 29100 nM [falling, partial curve] | 
4 | O=C(NCCc1ccccc1)c1oc2ccccc2c1COc1ccccc1 | -17 | 16400 nM [falling, partial curve, poor fit] | 
5 | Fc1ccc(CN(Cc2ccccc2)C(c2cccs2)c2nnnn2C2CCCCC2)cc1 (stereo unspecified) | -19.2 | 18400 nM [rising, single point] | 
6 | COc1ccc(C(=O)NC(C)CCc2ccccc2)c(OC)c1 (stereo unspecified) | -0.12 | 65.1 nM [falling, full curve, poor fit] | 
7 | CCOC(=O)CC1CCCCN1C(=O)c1cc(COc2cccc3cnccc23)on1 (stereo unspecified) | -23.5 | 2310 nM [falling, partial curve] | 731 nM [falling, full curve, poor fit]
8 | CCN(CC)S(=O)(=O)c1ccc2c(c1)nc(CCC(=O)Nc1ccc3c(c1)OCO3)n2CC | 17.5 | 41.1 nM [rising, full curve] | 
9 | COc1ccc(C)cc1Nc1nc(-c2c[nH]c3ccccc23)cs1 | 15 | 23100 nM [rising, partial curve] | 
10 | CCOC(=O)c1sc(=NC(=O)c2ccc(F)cc2)n(C)c1C | -0.295 |  | 
11 | CCOc1ccc(N2CC(C(=O)Nc3cc(OCC)c(N4CCOCC4)cc3OCC)CC2=O)cc1 (stereo unspecified) | 23 |  | 
12 | CCN(CC)CCCNC(=O)c1cc(-c2cccc(Cl)c2)on1 | -16.7 | 130 nM [falling, full curve, poor fit] | 
13 | CN1CCN(c2sc(S(C)(=O)=O)nc2S(=O)(=O)c2ccc(Cl)cc2)CC1 | -39.4 |  | 25900 nM [falling, single point]
14 | CO/N=C/C(C(C)=O)C(=O)Nc1ccc(Cl)cc1Cl (stereo unspecified) | -25.5 |  | 4110 nM [falling, full curve, poor fit]
15 | Cc1ccc(NC(=S)NNC(=O)C2CC2c2ccc(C)cc2)cc1 (stereo unspecified) | -25.5 | 29100 nM [falling, single point] | 
16 | CSc1nc(C)cc(C)c1S(=O)(=O)c1ccccc1C | 9.49 | 29100 nM [falling, single point] | 
17 | Cc1c2cnn(CC(=O)NCCCN3CC(C)CC(C)C3)c(=O)c2c(C)n1Cc1ccccc1Cl (stereo unspecified) | 40.1 |  | 5.8 nM [rising, full curve, poor fit]
18 | CC(=NCc1ccccc1)C1=C(O)COC1=O | -9 | 9200 nM [falling, partial curve, poor fit] | 
19 | CCOC(=O)c1cn2cccnc2n1 | 37.5 | 580 nM [falling, full curve] | 4110 nM [rising, single point]

Row | SMILES | cell number change [%] | AC50 [1] | AC50 [2]
20 | COc1ccc(CCN2CC(C(=O)NCc3ccc(F)cc3)CC2=O)cc1OC (stereo unspecified) | -14.4 |  | 
21 | O=C(Nc1ncccc1Cl)c1cccc(F)c1 | -0.527 | 231 nM [falling, full curve] | 
22 | CC1=C(C(=O)Nc2ccccn2)C(c2ccc(Br)cc2)n2ncnc2N1 (stereo unspecified) | 7.03 | 11600 nM [rising, single point] | 517 nM [falling, single point]
23 | N=C1/C(=C\c2coc3ccc(O)cc3c2=O)C(=O)N=C2SC=CN12 | -67 | 29100 nM [falling, single point] | 29100 nM [falling, single point]
24 | COc1ccccc1NC(=O)CSc1nncn1-c1cccnc1 | 7.15 | 6.51 nM [rising, full curve, poor fit] | 
25 | COc1ccc(CCNC(=O)C2CCCN(c3nc4ccccc4s3)C2)cc1OC (stereo unspecified) | 10.9 |  | 
26 | COc1ccc(C(=O)NC(C)c2ccc(-n3ccnc3)cc2)cc1[N+](=O)[O-] (stereo unspecified) | 44.4 |  | 25900 nM [rising, single point]
27 | O=C1CCC(C(=O)OCC(=O)C23CC4CC(CC(C4)C2)C3)N1 (stereo unspecified) | -2.45 | 259 nM [falling, partial curve, poor fit] | 
28 | CCOC(=O)Cn1ncc2c3ccccc3n(CC(=O)OCC)c2c1=O | -15.1 | 146 nM [falling, full curve, poor fit] | 92 nM [falling, full curve, poor fit]
29 | COCCN(CC(=O)Nc1cccc(C)c1C)C(=O)Cc1sc(C)nc1-c1ccc(F)cc1 | -31.5 | 2910 nM [rising, partial curve, poor fit] | 32600 nM [falling, single point]
30 | COc1ccc(CN2CCNC(=O)C2CC(=O)NCCN2CCCCC2=O)c(F)c1 (stereo unspecified) | 17.1 | 20600 nM [falling, single point] | 
31 | Cc1ccc(NC(=O)CN2C(=O)CCSc3ccc(S(=O)(=O)N4CCCC4)cc32)cc1C | 11.6 | 32600 nM [rising, single point] | 
32 | O=C(NCC(=O)N1CCN(c2ccccc2O)CC1)c1ccccc1 | -31.4 |  | 
33 | COCCNS(=O)(=O)c1ccc2c(c1)oc(=O)c1cc(S(=O)(=O)NCCOC)ccc12 | -33.5 | 231 nM [falling, full curve, poor fit] | 920 nM [falling, full curve, poor fit]
34 | CCOc1cccc(/C=N/NS(=O)(=O)c2ccc(C)c([N+](=O)[O-])c2)c1O |  | 580 nM [rising, single point] | 517 nM [rising, single point]
35 | Cc1cc(C(F)(F)F)n(-c2nc(C(=O)NNS(=O)(=O)c3ccccc3)cs2)n1 | 43.6 | 29100 nM [rising, single point] | 29100 nM [rising, single point]
36 | CCc1ccccc1NC(=O)N[C@@H](C)C(=O)OC | -19.6 | 58 nM [falling, full curve, poor fit] | 
37 | c1cc2c(cc1C1=NNC(=NC3CC3)SC1)OCCO2 |  |  | 411 nM [rising, full curve]
38 | C[C@H](NC(=O)c1[nH]cnc1C(=O)Nc1nccs1)c1ccccc1 | -10.6 | 29100 nM [rising, partial curve, poor fit] | 

Row | SMILES | cell number change [%] | AC50 [1] | AC50 [2]
39 | COC(=O)[C@@H]1C[C@@]2(O)[C@H](O)[C@H](O)[C@H](O)C[C@H]2N1Cc1ccc(C(F)(F)F)cc1 | 0.327 | 6510 nM [falling, single point] | 
40 | CCCOc1ccc(C2C3=C(Nc4nc(N)[nH]c(=O)c42)c2ccccc2C3=O)cc1 (stereo unspecified) |  | 206 nM [rising, full curve, poor fit] | 
41 | COc1cccc(C(=O)Nc2ccc(NC(=O)C(C)(C)C)cn2)c1 | 147 | 7310 nM [rising, partial curve] | 8200 nM [rising, partial curve]
42 | C=CCn1cccc(C(=O)Nc2cc(OC)cc(OC)c2)c1=O | -21.4 | 23100 nM [falling, single point] | 4.11 nM [rising, full curve, poor fit]
43 | COc1ccc(CCN2C(=NC(=O)CC(C)C)SC3CS(=O)(=O)CC32)cc1 (stereo unspecified) | 40 | 2060 nM [rising, partial curve] | 651 nM [rising, partial curve, poor fit]
44 | Cc1ccc(/C=N/NC(=O)CNC(=O)c2ccc(S(=O)(=O)N(C)C)cc2)o1 | 28.1 | 731 nM [falling, single point] | 
45 | O=C(N/N=C/c1ccccn1)c1cccc(S(=O)(=O)N2CCCC2)c1 | 1.14 |  | 
46 | CC(=O)Nc1ccc(SCC(=O)N(C)C2CCS(=O)(=O)C2)cc1 (stereo unspecified) |  | 461 nM [falling, partial curve] | 
47 | O=C(OCC(=O)N1CCc2ccccc21)c1cccnc1Cl | -38.8 | 29100 nM [falling, single point] | 16400 nM [falling, single point]
48 | Cc1cc(SCC(=O)Nc2ccccc2)n2ncc(-c3ccccc3)c2n1 | -37 | 18400 nM [falling, partial curve] | 16400 nM [falling, partial curve]
49 | CCC1(CC)C(=O)C(C)(C)C(=O)OC1c1cccs1 (stereo unspecified) | -17.6 | 6510 nM [falling, single point] | 
50 | CC(Oc1ccc(F)cc1)C(=O)Nc1cccc(-c2nn[nH]n2)c1 (stereo unspecified) | -12.4 |  | 
51 | COc1cc(OCC(N)=O)cc(OC)c1OC | 0.689 | 411 nM [falling, full curve, poor fit] | 
52 | COc1cc(CO)cc(Br)c1OCC(=O)O |  | 5.17 nM [falling, full curve, poor fit] | 
53 | O=C(NCc1ccccn1)/C(=N/O)c1ccccc1 | -26.9 | 580 nM [falling, full curve] | 651 nM [falling, full curve, poor fit]
54 | COCCn1nnnc1C(C(C)C)N(Cc1cccnc1)Cc1cc2cc(OC)ccc2[nH]c1=O (stereo unspecified) | 18 |  | 
55 | COc1cc2c(=O)n(CC3CCCO3)c(=O)n(CC(=O)Nc3cccc(Cl)c3)c2cc1OC (stereo unspecified) | 22.3 | 2060 nM [rising, partial curve] | 1160 nM [rising, full curve]
56 | Cc1ccsc1C(=O)OC1CCOC1=O (stereo unspecified) | -38.4 | 820 nM [falling, full curve] | 146 nM [falling, full curve, poor fit]

Single values from above.
AC50 [1] with `CCC1(CC)C(=O)C(C)(C)C(=O)OC1c1cccs1` (stereo unspecified) reads 6510 nM [falling, single point]
AC50 [2] with `O=C(OCC(=O)N1CCc2ccccc21)c1cccnc1Cl` reads 16400 nM [falling, single point]
cell number change [%] with `Cc1ccsc1C(=O)OC1CCOC1=O` (stereo unspecified) reads -38.4
cell number change [%] with `COc1cc2c(=O)n(CC3CCCO3)c(=O)n(CC(=O)Nc3cccc(Cl)c3)c2cc1OC` (stereo unspecified) reads 22.3
